{"source": "PubChem BioAssay AID1671195 (Yale University, 2021)", "aim": "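Knockdowns that increase or decrease uptake of fluorescent LDL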 (primary screen)", "cell system": "human Huh7 hepatoma cells", "reagents": "siRNA pool against human genes, 18 nM", "time to read-out": "about 2 to 2.5 days of knockdown, then 8 h LDL uptake", "challenge": "DiI-labelled LDL at 30 µg/ml for 8 h, in lipoprotein-deficient serum medium", "read-out": "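Per-cell DiI-LDL intensity by automated imaging; well means scaled to the plate median and given as a robust z-score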", "direction": "robust z-score: higher = more LDL uptake after knockdown", "active means": "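Active when two or more replicates show a robust z-score above 2 or below -2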", "note": "This is one part, drawn at random, of about 22,000 deposited reagents. Of all reagents, about 1,510 (6.9%) got an active call. 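Active includes knockdowns raising or lowering LDL uptake; positive z-scores mean more uptake, negative mean less.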"}
{"Target gene": "LOC442148 (retired record) (GeneID 442148)", "robust z-score, replicate 1": 2.28, "robust z-score, replicate 2": 1.75, "robust z-score, replicate 3": 1.46, "activity call": "inactive"}
{"Target gene": "NEUROG2 (GeneID 63973)", "robust z-score, replicate 1": 1.33, "robust z-score, replicate 2": 1.04, "robust z-score, replicate 3": 1.22, "activity call": "inactive"}
{"Target gene": "LOC391599 (retired record) (GeneID 391599)", "robust z-score, replicate 1": -0.648, "robust z-score, replicate 2": -0.674, "robust z-score, replicate 3": -0.309, "activity call": "inactive"}
{"Target gene": "STN1 (GeneID 79991)", "robust z-score, replicate 1": -0.371, "robust z-score, replicate 2": -0.472, "robust z-score, replicate 3": -0.208, "activity call": "inactive"}
{"Target gene": "HERC1 (GeneID 8925)", "robust z-score, replicate 1": 1.86, "robust z-score, replicate 2": 4.6, "robust z-score, replicate 3": 3.89, "activity call": "active"}
{"Target gene": "USP10 (GeneID 9100)", "robust z-score, replicate 1": -0.221, "robust z-score, replicate 2": -0.503, "robust z-score, replicate 3": 0.0758, "activity call": "inactive"}
{"Target gene": "IL17RE (GeneID 132014)", "robust z-score, replicate 1": -0.413, "robust z-score, replicate 2": -0.73, "robust z-score, replicate 3": -0.474, "activity call": "inactive"}
{"Target gene": "LOC440818 (retired record) (GeneID 440818)", "robust z-score, replicate 1": -2.77, "robust z-score, replicate 2": 0.559, "robust z-score, replicate 3": 0.658, "activity call": "inactive"}
{"Target gene": "GAST (GeneID 2520)", "robust z-score, replicate 1": -0.346, "robust z-score, replicate 2": -1.16, "robust z-score, replicate 3": -0.867, "activity call": "inactive"}
{"Target gene": "RELN (GeneID 5649)", "robust z-score, replicate 1": 0.798, "robust z-score, replicate 2": 0.36, "robust z-score, replicate 3": 0.15, "activity call": "inactive"}
{"Target gene": "LOC441840 (retired record) (GeneID 441840)", "robust z-score, replicate 1": -1.27, "robust z-score, replicate 2": -1.37, "robust z-score, replicate 3": -1.2, "activity call": "inactive"}
{"Target gene": "DEFB109B (GeneID 641517)", "robust z-score, replicate 1": 0.218, "robust z-score, replicate 2": 0.073, "robust z-score, replicate 3": 0.141, "activity call": "inactive"}
{"Target gene": "MTX3 (GeneID 345778)", "robust z-score, replicate 1": 0.515, "robust z-score, replicate 2": 0.778, "robust z-score, replicate 3": 0.667, "activity call": "inactive"}
{"Target gene": "LOC442331 (retired record) (GeneID 442331)", "robust z-score, replicate 1": 0.811, "robust z-score, replicate 2": 0.675, "robust z-score, replicate 3": 0.26, "activity call": "inactive"}
{"Target gene": "C6orf62 (GeneID 81688)", "robust z-score, replicate 1": -0.0196, "robust z-score, replicate 2": 0.0351, "robust z-score, replicate 3": 0.289, "activity call": "inactive"}
{"Target gene": "TMEM43 (GeneID 79188)", "robust z-score, replicate 1": 0.474, "robust z-score, replicate 2": 1.38, "robust z-score, replicate 3": 0.261, "activity call": "inactive"}

A few values from the list.
Under “robust z-score, replicate 2”, LOC440818 (retired record) (GeneID 440818) reads 0.559
Under “activity call”, HERC1 (GeneID 8925) reads active
